Test results reported in paper PMC5373594.
Where a protein sequence is shown, tags need not be part of it.

test system: T1, His6-WblI (Streptomyces lividans TK24); experiment: EMSA; settings: 10 mM Tris-HCl pH 7.5, 50 mM KCl, 1 mM DTT, 20 µl, room temperature 15 min, 50 pmol probe, 5% native PAGE in 45 mM Tris-HCl pH 8.3, 45 mM boric acid, recombinant protein, residues 1-126, label: 5' FITC (Plabel primer S17), probe letters rebuilt from the primers and the genome
T1 sequence (looked up): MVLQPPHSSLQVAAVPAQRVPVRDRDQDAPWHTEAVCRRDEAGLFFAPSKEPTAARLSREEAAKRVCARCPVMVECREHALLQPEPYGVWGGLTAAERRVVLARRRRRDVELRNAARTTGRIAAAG

Binding result, binds:
AGCCAGTGGCGATAAGATCGGTAGTGCGGCAGGCGGCCTGCGCACTCCAGTCGGTTACCCAGCCCATACCGGCGCCGTCCTCTCCCGAATCGAGGCTCCCCCACGGCGGCAGCGGCATATTCACCGCCGCCAGTTGAGGACGTTACGGAAGGTGGGCACAGCGCAACACCCCCTTCGGGCCCAATCTTGAATGGCCCGAACGGACTATGGGTAAGCGGCAGATCACCCGGGGGAGTGAGCTGGCGACATGCGCGACGATCCCGACATTCAGGTCATCTCTGTTGCGTCACAACGGACACCGATTGACACACGAGGCGGATTCGGACACGTACCCCACACGCCGTGGCACGCGCCGGTACACACCAACGCGCCCCCCAGCGGGGCCCCTCGGAAAAAAATCGAGCGGATCCGGAACGATTCGGGGTCGCCGGACGTATTGATACGCTTATCGCCACTGGCT (double strand) [wblA promoter], AGCCAGTGGCGATAAGCGAGTACCAGCAGGTCGTCATCAAGGCGTTCTCCGTCTTCGGCAGCGTCGAGGTGCGCGTCCCGGAGAACGTGTCGGTGCGCGGCGCCGGCGGCAGCGTGCTCGGCAGCTTCGAGGTCCACACCCTCGACTCCAGCGAGGCCGAGGCCCCCGTCATCTACGTGGACGGCTGGGCCGTACTGGGCAGCGTGGAGGCCCGCCCCAAGCGCGGCAAGGTCGTCGCCGACATCCTCGACCGGATGCACCGACGCGTCGAGAAGGGTTTGCGCAAGCACGTGTAGGACGGCACCGGCAGCGGTCGGGAACCCAGTGCATAGGCGCGCGTACAACGGGTAAGCCTTGACGCATCGTCTCTCGCTAGCGAAGCCGTCGTCAGGAGTAGACCCGTGCTGCAACCGCCGCATTCGTCCCTGCAGGTAGCTTATCGCCACTGGCT (double strand) [wblI promoter], AGCCAGTGGCGATAAGGTCTCGTTCCGCGTCAACACCGAGACCGGCACGATCGACATCGGCGGGCACAACCTGACCGCCAGCAAGAAGTTCCGCAACGTCACCAAGCACGACCAGGTCGCCTTCGTCGTCGACGACCTGATCTCCACGCAGCCGTGGAACGTACGCGGTATCGAAGTGCGCGGCCGGGCCGAGGCGCTGACCGACGCGCAGCCGCCGCACCCCTACTTCGGTACCGCGATGATCCGTATCCACCCCAAGCGCATCATCACCTGGGGCCTCGGCGGCGACGCCGCCCAGCGCGGCCGCGACGTCTGACCCAGCACCCTTCGACTCCGCTTCGAGCGGACCTCGACGCCCTCTTGCCAAGGTGGAGCCCGTAGGACGGGTACACCACGGGGAGGGCGGCTGGATGAGTACCTTATCGCCACTGGCT (double strand) [actVA3 promoter]
